# Measurements taken from publication PMC7819943, “Rice protein-binding microarrays: a tool to detect cis-acting elements near promoter regions in rice”.
# Chains of the proteins cited; added tags and fusions are not shown.
# UniProt Q0JBA9, entry or part of it: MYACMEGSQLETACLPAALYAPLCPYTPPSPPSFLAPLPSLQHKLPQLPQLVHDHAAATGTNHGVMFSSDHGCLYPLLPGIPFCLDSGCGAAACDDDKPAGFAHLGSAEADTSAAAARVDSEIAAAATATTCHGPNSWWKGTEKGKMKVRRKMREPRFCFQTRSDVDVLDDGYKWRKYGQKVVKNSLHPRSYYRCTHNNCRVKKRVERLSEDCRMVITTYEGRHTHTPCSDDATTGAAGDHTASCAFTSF
# This is one part of the list.
# Molecular target: OsWRKY34 (Oryza sativa, UniProt Q0JBA9 1-250)
# Experiment: protein-binding microarray (RPBM); PBS, 2% BSA, 51.3 ng/ul salmon testes DNA, 50 uM zinc acetate, 200 nM TF, 25 C, 1 h; high values mean tight binding
# Settings: protein: recombinant; tags: N-terminal polyhistidine and DsRed monomer fusion (pET32a); label: CyDye5-dUTP incorporated in the synthesized complementary strand; 3' TTTTT single-stranded linker to array surface; dsDNA, one strand shown
# How it was run: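 An Axon 4000B scanner gave the binding signal as per-feature fluorescence intensity in arbitrary units. This followed washing of a custom Agilent array that had been incubated for 1 h at 25 °C with 200 nM protein in PBS, 2% BSA, salmon testes DNA and 50 µM zinc acetate. The proteins were transcription factors fused at the N-terminus to polyhistidine and DsRed, expressed in E. coli BL21-CodonPlus and purified on Ni–NTA.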
row,Sequence,binding signal
1,TAGTCTGTCAAATTGGCCATCCATCTCCAGCACTGATACCCGGAGTCACCTAGTGCAG,8310 fluorescence intensity (a.u.)
2,CGTCGTCCCCGCCGCGCCGCCGCCGCCGCATCCTCCGGGTCGGAGTCACCTAGTGCAG,9300 fluorescence intensity (a.u.)
3,CCGGGTTCTATCAAAATCTACGTAACTATACAAGCACATTCGGAGTCACCTAGTGCAG,8070 fluorescence intensity (a.u.)
4,GTTTCGACTGCTCCACAACTCCACTCTAAACCCACATTATCGGAGTCACCTAGTGCAG,9510 fluorescence intensity (a.u.)
5,GGTCGCCGTCGTCAACGTTGGTCTTGGGCACCTCGCGTTTCGGAGTCACCTAGTGCAG,10600 fluorescence intensity (a.u.)
6,GAGCTCTGGCCCACTCTTCAGTCTTCGGATTCTCCACTCTCGGAGTCACCTAGTGCAG,8120 fluorescence intensity (a.u.)
7,TGTTTGTGTGGCGGGGAGGAGGCGATGCCGCAAGGGGCGACGGAGTCACCTAGTGCAG,8880 fluorescence intensity (a.u.)
8,AACGTACTGCTCCCTGCCCCTCTTGATTTGGTTTCTTTCTCGGAGTCACCTAGTGCAG,8280 fluorescence intensity (a.u.)
9,ACCACCACCCTGATGGATCTTGGCTCTAGCTCCTGGTTTTCGGAGTCACCTAGTGCAG,8110 fluorescence intensity (a.u.)
10,AAAAATATTTGACAGCGTTGACTTTTTAGTGCGTATTTGACGGAGTCACCTAGTGCAG,42800 fluorescence intensity (a.u.)
11,ATATTGCGATGCACTGATTTTTTTTCGTAGCGTTTCCGTACGGAGTCACCTAGTGCAG,10000 fluorescence intensity (a.u.)
12,CCAATTTTGTGTACACACACGCACTAACTGAGATCGATGACGGAGTCACCTAGTGCAG,8160 fluorescence intensity (a.u.)
13,CGTGGCGTGGTAGTCTTCGACTCGTTCTTTTTGTTGTTGTCGGAGTCACCTAGTGCAG,8610 fluorescence intensity (a.u.)
14,TTCCCTCGTCGTCTTCTTCGTGTCCGCTCTTTGGGCCTCGCGGAGTCACCTAGTGCAG,9330 fluorescence intensity (a.u.)
15,AGCAACCAGTCGCCTCTCCCCGCCGCACGCACGCACACCTCGGAGTCACCTAGTGCAG,8960 fluorescence intensity (a.u.)
16,AAGGGGTTTCTCTTCTATTCTCATTTGCTTTTCCTTTTTGCGGAGTCACCTAGTGCAG,8750 fluorescence intensity (a.u.)
17,GTGGTGATTCCGCCCCATCCATCCCGCGTCGACGTAGAAACGGAGTCACCTAGTGCAG,8260 fluorescence intensity (a.u.)
18,TTTAGAGTCATGTTGGTGTCTGGATTTCCTTTTGTTGGTACGGAGTCACCTAGTGCAG,8740 fluorescence intensity (a.u.)
19,TTACATGTAAACTGTGCAATTGGTTCTTTTTTCATCCACACGGAGTCACCTAGTGCAG,8370 fluorescence intensity (a.u.)
20,AATTTTGGATATGTTTGTCTCTTTTTTTATTTCATTCGAACGGAGTCACCTAGTGCAG,8350 fluorescence intensity (a.u.)
21,CTGCACCACCCCACCCCACCCCACCCCACCGGCGGCGATGCGGAGTCACCTAGTGCAG,9040 fluorescence intensity (a.u.)

# Some of the entries above, reformatted.
row	Sequence	binding signal
12	CCAATTTTGTGTACACACACGCACTAACTGAGATCGATGACGGAGTCACCTAGTGCAG	8160 fluorescence intensity (a.u.)
13	CGTGGCGTGGTAGTCTTCGACTCGTTCTTTTTGTTGTTGTCGGAGTCACCTAGTGCAG	8610 fluorescence intensity (a.u.)
14	TTCCCTCGTCGTCTTCTTCGTGTCCGCTCTTTGGGCCTCGCGGAGTCACCTAGTGCAG	9330 fluorescence intensity (a.u.)
15	AGCAACCAGTCGCCTCTCCCCGCCGCACGCACGCACACCTCGGAGTCACCTAGTGCAG	8960 fluorescence intensity (a.u.)
16	AAGGGGTTTCTCTTCTATTCTCATTTGCTTTTCCTTTTTGCGGAGTCACCTAGTGCAG	8750 fluorescence intensity (a.u.)
17	GTGGTGATTCCGCCCCATCCATCCCGCGTCGACGTAGAAACGGAGTCACCTAGTGCAG	8260 fluorescence intensity (a.u.)

# The listing continues.

row,Sequence,binding signal
1,CTTGTCGCTACCATCGGACCGCACATCGTAGCTGCCGGACCGGAGTCACCTAGTGCAG,8250 fluorescence intensity (a.u.)
2,ATCGATCGGTTAATCTGTAGGCTGCTACCTCGCTAGCTCCCGGAGTCACCTAGTGCAG,8510 fluorescence intensity (a.u.)
3,ACCACACACACACTGACACTGTGACACAACACAACACGGCCGGAGTCACCTAGTGCAG,9500 ± 738 fluorescence intensity (a.u.)
4,GTCATCACCACCACGCGAGCTCGCTCAGCAACACGACACGCGGAGTCACCTAGTGCAG,8510 fluorescence intensity (a.u.)
5,CGCCCACCGCCCGCGTCTGCTCAGCTGGTTTAAATTTGAACGGAGTCACCTAGTGCAG,9550 fluorescence intensity (a.u.)
6,ATCCTCTCTCCTGAAGACCTATTTGCAGTAAGTGTTCTCTCGGAGTCACCTAGTGCAG,8370 fluorescence intensity (a.u.)
7,ACTATAATATTCATCCGATCCAAATCCGCATATTCTCGGTCGGAGTCACCTAGTGCAG,8720 fluorescence intensity (a.u.)
8,ATCCAAGCCATGTTCCATACGCATCACAATTCCACAAGCTCGGAGTCACCTAGTGCAG,9480 fluorescence intensity (a.u.)
9,AACCAGTTCAATCATCCAGTATACTTCCCATCCTCCTACTCGGAGTCACCTAGTGCAG,8460 fluorescence intensity (a.u.)
10,CGAATTTTTTCATTTTTTTTCTCTCTTTCCATTCTCCCCGCGGAGTCACCTAGTGCAG,8100 fluorescence intensity (a.u.)
11,CCAAATGGAGGTGCATTCTCATTTCTCACCGGCCGTTGACCGGAGTCACCTAGTGCAG,11100 fluorescence intensity (a.u.)
12,CTTAATTGCTTATTGGTTTTTCATGGATCGTATTTATCAACGGAGTCACCTAGTGCAG,9780 fluorescence intensity (a.u.)
13,CTAACCTGGACCGTCCATCCGCGCGAAGTTTTCTCCACCGCGGAGTCACCTAGTGCAG,9060 fluorescence intensity (a.u.)
14,CCCTACTCCCTCCCGTGAGGCCCAACCATCTCCGTCTCTCCGGAGTCACCTAGTGCAG,8880 fluorescence intensity (a.u.)
15,CTCCATCTCCATTATTTCCACCCCGGCAACAATCCAACCGCGGAGTCACCTAGTGCAG,8860 fluorescence intensity (a.u.)
16,GCCACCAATCCTCGGCCTCCGCGCGCGGCTGCGCCCAGTCCGGAGTCACCTAGTGCAG,12300 fluorescence intensity (a.u.)
17,GTGTACTTTATCCGATATAAGATGTAACTTATTTTATTTACGGAGTCACCTAGTGCAG,9300 fluorescence intensity (a.u.)
18,CTTCGATTAGCTCAGTTCTATACTTCTATTTCGTCTGTTGCGGAGTCACCTAGTGCAG,8270 fluorescence intensity (a.u.)
19,AACTAACGATCACGACGTTGACTTCAATCCACATATATATCGGAGTCACCTAGTGCAG,11500 fluorescence intensity (a.u.)
20,CTACCTATGTCGATCGAAGTTCCTGGCATACACTGTATACCGGAGTCACCTAGTGCAG,9170 fluorescence intensity (a.u.)
21,TACAAGGTCGAATCCACCAACCTGACTTCTTTTTCGTCGCCGGAGTCACCTAGTGCAG,8140 fluorescence intensity (a.u.)

row,Sequence,binding signal
1,GGTCGAGCATCCCGTCACCTTCCCACTCCTCATTTGCTCGCGGAGTCACCTAGTGCAG,10800 fluorescence intensity (a.u.)
2,GGAGGAGAGGAGGTGAGTAGGGGTAGTTCAATGGCATTTTCGGAGTCACCTAGTGCAG,8640 fluorescence intensity (a.u.)
3,ACGTCTGCCTTATTTGTAAATATTTCTTTGTTTTCTATTTCGGAGTCACCTAGTGCAG,10800 fluorescence intensity (a.u.)
4,ACTTTATCGTGTATCAATTCATCTTTGTGCGTCTTGACTACGGAGTCACCTAGTGCAG,9070 fluorescence intensity (a.u.)
5,GCTCCAGCCCAATCTGCTGCTTCCTACCTTTTCTCCATACCGGAGTCACCTAGTGCAG,10000 fluorescence intensity (a.u.)
6,TCCTGTCGTATGTCTTCACCACCACACAAACAATGCTTCTCGGAGTCACCTAGTGCAG,9550 fluorescence intensity (a.u.)
7,CAGAGGGACCCAACGTAGTGCCAAACGTCACCATTTCATGCGGAGTCACCTAGTGCAG,8220 fluorescence intensity (a.u.)
8,AATAAGACGAATGGTCAAACGCGTACTAAAAAGTCAACGGCGGAGTCACCTAGTGCAG,14500 fluorescence intensity (a.u.)
9,TCCAGCCACGCCTCGTCACTCGCCACCCACACTGCGCAAGCGGAGTCACCTAGTGCAG,10000 fluorescence intensity (a.u.)
10,TACTCATCTCCTTCGGTGACATACACTGTTGCACTTTGGCCGGAGTCACCTAGTGCAG,11500 fluorescence intensity (a.u.)
11,TGGTTCTTGGGCAGCTTGTTGGGGAATTCGGTTTCGACGACGGAGTCACCTAGTGCAG,13300 fluorescence intensity (a.u.)
12,AACTAGGTCCCTCGGCGGTTTTGACTCCTGTTTTGTCCAACGGAGTCACCTAGTGCAG,12500 fluorescence intensity (a.u.)
13,TTATATAGGGTGTCATATGGGGTGTTTGGATACTAATAAACGGAGTCACCTAGTGCAG,9390 fluorescence intensity (a.u.)
14,CCCCGCGATCCCGCCTCGGCATATTCGCCGTCCTTCGCCTCGGAGTCACCTAGTGCAG,10300 fluorescence intensity (a.u.)
15,GCCATCTCCTCCCCAACACTGGGCCGCGCCGCATCGTCTCCGGAGTCACCTAGTGCAG,8200 fluorescence intensity (a.u.)
16,TTCCCTCCGTTTCAGGTTATAAGACGTTTTGACTTTGGTTCGGAGTCACCTAGTGCAG,9490 fluorescence intensity (a.u.)
17,ACACACCGCACACCAGGGGCAATCCCGTAAATCGACCAAACGGAGTCACCTAGTGCAG,9720 fluorescence intensity (a.u.)
18,TCTTGCTCAAGATCTATTTGACGCCAACATTTTCGAACAACGGAGTCACCTAGTGCAG,8530 fluorescence intensity (a.u.)
19,GACGCGGCGCAGTGCAACCAACAAACCGGGGCGGGCGGGGCGGAGTCACCTAGTGCAG,11800 fluorescence intensity (a.u.)
20,ATTAATCATATGCTAATGGCTCACCTCATTTTACGTATCTCGGAGTCACCTAGTGCAG,8940 fluorescence intensity (a.u.)
21,CATTTCCATTTCCCAATTCCACCCCTCCTAATCCATTTTCCGGAGTCACCTAGTGCAG,8240 fluorescence intensity (a.u.)

row,Sequence,binding signal
1,TCATTAGCGTTCTTTGTGCTTACTGGTACTATCGGTTTCTCGGAGTCACCTAGTGCAG,9500 fluorescence intensity (a.u.)
2,CCCGCCGTGTGGCCGTGCATTGCTGTCCCTGAGCTTGCTGCGGAGTCACCTAGTGCAG,8140 fluorescence intensity (a.u.)
3,TTCTTCATTTGGTTTTCATAGTTCAGTTGTGTTGTGATCTCGGAGTCACCTAGTGCAG,14200 fluorescence intensity (a.u.)
4,CTGCTGGAGAATCATCCCTGTGATCTTTTGTTTCCTGCTTCGGAGTCACCTAGTGCAG,8420 fluorescence intensity (a.u.)
5,ACGGGGCACGAGACCAACCACGCATTCTAGCGCCACCGAACGGAGTCACCTAGTGCAG,8170 fluorescence intensity (a.u.)
6,GCCGAAAGCCCATTTAGTTAGTTTTGTTCCGCTGAAAGCCCGGAGTCACCTAGTGCAG,8430 fluorescence intensity (a.u.)
7,GCTCCCTACCATCCCATGGCTGCGACAGATTGTTTTATTACGGAGTCACCTAGTGCAG,8620 fluorescence intensity (a.u.)
8,CTCTCTCTTCTTTTATCTCCTCGATATGTGTTTAAGCTGGCGGAGTCACCTAGTGCAG,8670 fluorescence intensity (a.u.)
9,CCCGCTCAAAATAATTCCCGCGTCCCCGCCCGCCGCGGCCCGGAGTCACCTAGTGCAG,8920 fluorescence intensity (a.u.)
10,GACACTCTGCAGTATCCCGTTTGGCAATTTTTCTGCATCACGGAGTCACCTAGTGCAG,10900 fluorescence intensity (a.u.)
11,AGGCTAATACTTTAGCCGGCTGCTGGCTGAATACTACTACCGGAGTCACCTAGTGCAG,10700 fluorescence intensity (a.u.)
12,TGGCCGATCTCCGCGCGATCGACGCGAACCGCCTCATTCTCGGAGTCACCTAGTGCAG,8070 fluorescence intensity (a.u.)
13,CTCCTCCATCTTCGCGCCGCCGTCCCTCACCACATTCGCTCGGAGTCACCTAGTGCAG,9920 fluorescence intensity (a.u.)
14,ATTGTGTTATCAATTCATCTTTGTTATCGTCTTTCTTATGCGGAGTCACCTAGTGCAG,10800 fluorescence intensity (a.u.)
15,TCTTTCTTTCTTTCTTTCTTGTGCGTCATCTCTATCACCGCGGAGTCACCTAGTGCAG,9850 fluorescence intensity (a.u.)
16,ATTTACGCTTTTTTAAGCTCTTTTCCGTTCACTTCTGGACCGGAGTCACCTAGTGCAG,9140 fluorescence intensity (a.u.)
17,CCCCTGGACAACCAAGGAGATGTTCCCAATCATTCTCACCCGGAGTCACCTAGTGCAG,8380 fluorescence intensity (a.u.)
18,TTCACCTGTCTCTCGCCTGCCAACCATCGATCCAAGTCCCCGGAGTCACCTAGTGCAG,12100 fluorescence intensity (a.u.)
19,CGGTTTTGTATAGTTTAGGGGTGGAGATTTCTGGTTTTGTCGGAGTCACCTAGTGCAG,10300 fluorescence intensity (a.u.)
20,TGTTGCATTTCTCGTCCTGATTTGCGTCCTGCAGCTCTCTCGGAGTCACCTAGTGCAG,8630 fluorescence intensity (a.u.)
21,TTTCGTCTTCAATTTTGCTATATATTTGTCGACAAATTTTCGGAGTCACCTAGTGCAG,10100 fluorescence intensity (a.u.)
